Test results published in patent publication US20190145976A1 (GOVERNING COUNCIL OF THE UNIVERSITY OF TORONTO, published 2019).

How the values were obtained:
[1] = molecular target: extracellular domain of murine αKlotho (A35 to K982) with a C-terminal FLAG tag (mouse); experiment: Fab-phage ELISA on immobilised antigen
[2] = molecular target: extracellular domain of murine αKlotho (A35 to K982) with a C-terminal FLAG tag (mouse); experiment: Fab-phage ELISA on immobilised antigen, HRP-conjugated anti-phage antibody, absorbance at 450 nm

B1: sb106 Fab-phage (Fab, V domains shown)
VH: EVQLVESGGGLVQPGGSLRLSCAASGFNISYYSIHWVRQAPGKGLEWVAYISPSYGYTSYADSVKGRFTISADTSKNTAYLQMNSLRAEDTAVYYCARYYVYASHGWAGYGMDYWGQGTLVTVSS
VL: DIQMTQSPSSLSASVGDRVTITCRASQSVSSAVAWYQQKPGKAPKLLIYSASSLYSGVPSRFSGSRSGTDFTLTISSLQPEDFATYYCQQAGYSPITFGQGTKVEIKR
notes: also called sb106-phage; Sb106-phage
[1]
  binding: binds
[2]
  binding: binds

Results are given in words; binding and its absence hold for the method and conditions named. Binding can be weak; no strength is given.
